# Results: PubChem BioAssay AID504834 (National Center for Advancing Translational Sciences (NCATS), 2011)
# In all, about 320,000 compounds went through this assay and about 22,000 (6.9%) were called active. Inconclusive results, whose numbers are uncertain, are shown with a selection of clear calls. The call rests on the fitted dose curve; in most records, active means well fitted inhibition curve with a large enough effect; inconclusive means small, poorly fitted or top-dose-only effect, or another doubt; inactive means no such curve, though single readings can be large or run the other way. A potency beside an inconclusive call is a rough fit, not a confirmed value.
# Test: Primary qHTS for delayed death inhibitors of the malarial parasite plastid, 96 hour incubation
# Conditions: P. falciparum luciferase reporter growth; series mostly up to 28.7 µM
# Summary of the method: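 Two parasite generations (96 h, 37 C, 5% CO2) of compound exposure in infected erythrocytes (0.05% parasitemia, 2% hematocrit). Luciferase-reporter P. falciparum; decreased luminescence indicates inhibited growth, aimed at apicoplast-acting delayed death.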
# Potency means the concentration at half of the fitted maximal effect.
row,Compound,Potency
1,O=C(CNC(=O)c1cccnc1)N/N=C/c1cc(Br)c(O)c(Br)c1,inactive
2,COc1cccc(CN2CCNC(=O)C2CC(=O)NCCn2nc(C)cc2C)c1OC (configuration not stated),"inconclusive: 10.4 µM [inhibitor, single point]"
3,CCN(CC(=O)Nc1c(F)cccc1F)C(=O)CCN1C(=O)c2cccc([N+](=O)[O-])c2C1=O,inactive
4,O=C(Cc1c(Cl)cccc1Cl)NC1CC1,inactive
5,CCCCCCNC(=O)Cc1ccc(Br)cc1,inactive
6,CC(CC(=O)Nc1ccc(F)cc1)S(=O)(=O)c1ccc2c(c1)NC(=O)CO2 (configuration not stated),"inconclusive: 4.65 µM [inhibitor, partial curve]"
7,O=C(O)c1cc2cc(Cl)cc(Cl)c2oc1=O,"inconclusive: 18.5 µM [inhibitor, single point]"
8,CCCCCCCCNC(=O)C(CCC(=O)OCc1ccccc1)NC(C)=O (configuration not stated),"inconclusive: 18.5 µM [inhibitor, single point]"
9,O=C(CSc1nccc(=O)[nH]1)N1CCCc2ccccc21,"inconclusive: 7.38 µM [inhibitor, partial curve]"
10,Cc1ccc(C2=Nc3ccc(Br)cc3C(c3ccncc3)=NN2)cc1,inactive
11,COc1ccc(S(=O)(=O)N2CCCCC2)cc1NC(=O)c1ccc(C)cc1,inactive
12,COc1ccc(CN2CCNC(=O)C2CC(=O)NCc2csc(C(C)C)n2)c(OC)c1 (configuration not stated),"inconclusive: 11.7 µM [inhibitor, single point]"
13,COc1ccc(OCCCC(=O)Nc2cc(Cl)ccc2-n2cncn2)cc1,"inconclusive: 18.5 µM [inhibitor, single point]"
14,CC1Cc2ccccc2C(CCc2ccccc2)=N1 (configuration not stated),inactive
15,CCCn1c(SCN2C(=O)c3ccccc3C2=O)nc2cc(Cl)ccc2c1=O,inactive
16,COc1ccc(-c2ccc(=O)n(CC(=O)NCC3COCCO3)n2)cc1 (configuration not stated),"inconclusive: 0.0083 µM [inhibitor, full curve, poor fit]"
17,CC(C)N(CCc1ccncc1)C(=S)Nc1cccc(Cl)c1,inactive
18,Cc1ccc(N=C2NC(=O)/C(=C/c3cn(C)c4ccccc34)S2)cc1C,active: 4.65 µM
19,Cc1ccccc1Oc1ncnc(N)c1[N+](=O)[O-],"inconclusive: 14.7 µM [inhibitor, single point]"
20,COC(=O)c1sccc1NC(=O)c1ccc(C)s1,"inconclusive: 18.5 µM [inhibitor, single point]"
21,CCCCC(=O)Nc1cc(OCC)c(NC(=O)c2ccccc2[N+](=O)[O-])cc1OCC,"inconclusive: 0.0586 µM [inhibitor, full curve, poor fit]"
22,CCC1CCCCN1C(=O)COC(=O)c1ccc(Br)o1 (configuration not stated),"inconclusive: 18.5 µM [inhibitor, single point]"

# Looked up one by one from the entries so far:
row,Compound,Potency
5,CCCCCCNC(=O)Cc1ccc(Br)cc1,inactive
16,COc1ccc(-c2ccc(=O)n(CC(=O)NCC3COCCO3)n2)cc1 (configuration not stated),"inconclusive: 0.0083 µM [inhibitor, full curve, poor fit]"
